PubChem BioAssay AID212 (DTP/NCI, 2004)
The list shows only some results of the screen, not a fair sample: it is rich in T/C values a quarter to a half above the control, in often repeated tests (any T/C) and in doses without a T/C. Other doses and runs of a compound stand elsewhere. T/C is the treated group as % of the vehicle group. Schedules are NCI's codes, taken here to give the interval after Q, in days (D) or hours (H), and the number of doses after X. Some T/C values carry the count of animals alive at the toxicity check (mostly the fifth day); where none is given, no animal had died by that day. Some doses were run more than once; the results are listed from low to high. Counts like (3×) give the number of equal values in this list. Some doses have a count of surviving animals in place of a T/C: the source holds a T/C of zero for them, seemingly a mark for toxic or unscored doses. Survivors were counted at the toxicity check, usually on the fifth day, unless a day is given; later deaths do not show.

Test system: BDF1 mice, colon carcinoma 38 sc, T/C %
Assay: NCI In Vivo Anticancer Drug Screen. Data for tumor model Colon Carcinoma 38 (subcutaneous) in B6D2F1 (BDF1) mice
Settings: for T/C: evaluated on day 20
Method in brief: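 Mice with transplanted tumors are treated with compound or vehicle. Survival or tumor size is then measured in both groups. The ratio of treated to control gives the reported figure.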

[1] = T/C endpoint: median tumor weight (est.), dose: 200.0 mg/kg/injection, schedule: Q07DX002 (ip), vehicle: saline, higher T/C = larger tumour
[2] = T/C endpoint: median tumor weight (est.), dose: 400.0 mg/kg/injection, schedule: Q07DX002 (ip), vehicle: saline, higher T/C = larger tumour
[3] = T/C endpoint: median tumor weight (est.), dose: 800.0 mg/kg/injection, schedule: Q07DX002 (ip), vehicle: saline, higher T/C = larger tumour

NC(=O)c1csc(C2OC(CO)C(O)C2O)n1 (stereo not drawn)
survivor count (T/C endpoint: median tumor weight (est.), dose: 50.0 mg/kg/injection, schedule: Q07DX002 (ip), vehicle: water, higher T/C = larger tumour): 4 of 10 on day 20
T/C (T/C endpoint: median tumor weight (est.), dose: 800.0 mg/kg/injection, schedule: Q07DX002 (ip), vehicle: water, higher T/C = larger tumour): 130 % of control

CCN(CC)CCOC(=O)Cc1cccc2c(=O)cc(-c3ccccc3)oc12
survivor count (T/C endpoint: median survival time, dose: 88.0 mg/kg/injection, schedule: Q07DX002 (ip), vehicle: saline, higher T/C = longer survival): 6 of 10 on day 97
survivor count (T/C endpoint: median survival time, dose: 300.0 mg/kg/injection, schedule: Q07DX002 (ip), vehicle: saline, higher T/C = longer survival): 0 of 10 on day 97
survivor count (T/C endpoint: median survival time, dose: 450.0 mg/kg/injection, schedule: Q07DX002 (ip), vehicle: saline, higher T/C = longer survival): 0 of 10 on day 97
survivor count (T/C endpoint: median survival time, dose: 675.0 mg/kg/injection, schedule: Q07DX002 (ip), vehicle: saline, higher T/C = longer survival): 0 of 10 on day 97
T/C (T/C endpoint: median tumor weight (est.), dose: 21.0 mg/kg/injection, schedule: Q07DX002 (iv), vehicle: saline, higher T/C = larger tumour): 129 % of control
T/C (T/C endpoint: median tumor weight (est.), dose: 25.0 mg/kg/injection, schedule: Q07DX002 (ip), vehicle: saline, higher T/C = larger tumour): 62, 88, 97, 105 % of control
T/C (T/C endpoint: median tumor weight (est.), dose: 50.0 mg/kg/injection, schedule: Q07DX002 (ip), vehicle: Klucel (hydroxypropylcellulose) (HPC), higher T/C = larger tumour): 126 % of control
T/C (T/C endpoint: median tumor weight (est.), dose: 50.0 mg/kg/injection, schedule: Q07DX002 (ip), vehicle: saline, list 1 of 2, higher T/C = larger tumour): 37, 42, 46, 49, 55, 58, 59, 60, 62, 63, 69, 71, 75, 78, 82, 84, 86, 88, 89, 97 (2×), 99, 106, 107, 109, 111, 112, 121, 122, 124, 126 [9 of 10 alive on day 20], 134 [8 of 10 alive on day 20], 143, 192 % of control [9 of 10 alive on day 20]
T/C (T/C endpoint: median tumor weight (est.), dose: 50.0 mg/kg/injection, schedule: Q07DX002 (ip), vehicle: saline, list 2 of 2, higher T/C = larger tumour): 34 [8 of 10 alive on day 20], 38, 42, 48, 54 [9 of 10 alive on day 20], 56, 59 (2×), 61, 62, 64 [9 of 10 alive on day 20], 69, 73, 77 [9 of 10 alive on day 20], 80 [8 of 10 alive on day 20], 83, 85, 88, 89, 94, 97 [9 of 10 alive on day 20], 99, 100, 106, 108, 109, 111 [9 of 10 alive on day 20], 113 [7 of 10 alive on day 20], 122, 123, 125, 129, 137, 155 % of control
survivor count (T/C endpoint: median tumor weight (est.), dose: 50.0 mg/kg/injection, schedule: Q07DX002 (iv), vehicle: saline, higher T/C = larger tumour): 0 of 10 on day 20 and 5 of 10 on day 20
T/C (T/C endpoint: median tumor weight (est.), dose: 100.0 mg/kg/injection, schedule: Q07DX002 (ip), vehicle: saline, list 1 of 2, higher T/C = larger tumour): 42, 51, 56, 57, 65 [8 of 10 alive on day 20], 69, 69 [9 of 10 alive on day 20], 71, 72, 78 [9 of 10 alive on day 20], 79, 81, 82, 83, 85, 89, 90 [9 of 10 alive on day 20], 92, 94, 96, 99, 100, 101, 104, 114, 124, 129, 134 [9 of 10 alive on day 20], 138, 139 [9 of 10 alive on day 20], 142, 152, 158, 168 % of control
T/C (T/C endpoint: median tumor weight (est.), dose: 100.0 mg/kg/injection, schedule: Q07DX002 (ip), vehicle: saline, list 2 of 2, higher T/C = larger tumour): 32, 45, 53, 56, 64, 69, 69 [9 of 10 alive on day 20], 70 [9 of 10 alive on day 20], 71, 78 [9 of 10 alive on day 20], 79, 80, 82, 83, 84 [9 of 10 alive on day 20], 87, 89, 91, 92 [7 of 10 alive on day 20], 96, 99 [8 of 10 alive on day 20], 100, 101, 102, 113, 115, 127, 132, 135, 139, 141, 146, 158, 163 % of control
survivor count (T/C endpoint: median tumor weight (est.), dose: 100.0 mg/kg/injection, schedule: Q07DX002 (iv), vehicle: saline, higher T/C = larger tumour): 0 of 10 on day 20
survivor count (T/C endpoint: median tumor weight (est.), dose: 150.0 mg/kg/injection, schedule: Q07DX002 (iv), vehicle: saline, higher T/C = larger tumour): 0 of 10 on day 20
T/C [1]: 1 [8 of 10 alive on day 20], 2 (2×), 4, 8, 10, 16, 20, 38, 95 % of control
survivor count [1]: 0 of 10 on day 20, 3 of 10 on day 20, 5 of 10 on day 20, 6 of 10 on day 20
survivor count (T/C endpoint: median tumor weight (est.), dose: 200.0 mg/kg/injection, schedule: Q07DX002 (iv), vehicle: saline, higher T/C = larger tumour): 0 of 10 on day 20
survivor count (T/C endpoint: median tumor weight (est.), dose: 300.0 mg/kg/injection, schedule: Q07DX002 (iv), vehicle: saline, higher T/C = larger tumour): 0 of 10 on day 20
survivor count (T/C endpoint: median tumor weight (est.), dose: 356.0 mg/kg/injection, schedule: Q07DX002 (ip), vehicle: saline, higher T/C = larger tumour): 6 of 10 on day 20
survivor count [2]: 0 of 10 on day 20, 1 of 10 on day 20, 4 of 10 on day 20
survivor count (T/C endpoint: median tumor weight (est.), dose: 400.0 mg/kg/injection, schedule: Q07DX002 (iv), vehicle: saline, higher T/C = larger tumour): 0 of 10 on day 20
survivor count [3]: 0 of 10 on day 20

COC1C(OC(=O)/C=C/C=C/C=C/C=C/C(=O)O)CCC2(CO2)C1C1(C)OC1CC=C(C)C (stereo not drawn)
T/C (T/C endpoint: median tumor weight (est.), dose: 100.0 mg/kg/injection, schedule: Q07DX002 (ip), vehicle: suspension in saline, higher T/C = larger tumour): 125 % of control
survivor count [2]: 0 of 10 on day 20
survivor count [3]: 0 of 10 on day 20

C[N+](C)(C)c1ncnc2nc[nH]c12
survivor count [2]: 4 of 10 on day 20
